# Data as given in PubChem BioAssay AID493246 (Drosophila RNAi Screening Center, 2011)
# Assay: 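Genes fly cells need to grow and stay alive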 (primary screen)
# Cell system: Drosophila Kc and S2R+ cells
# Reagent: long dsRNA against Drosophila genes
# Read-out: 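Cell number per well after knock-down, printed as raw plate values; calls were based on per-plate z-scores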
# Reading the numbers: Kc cell number and S2R+ cell number: higher = more cells remaining
# Hit rule: 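Active when the per-plate z-score of cell number is 3 or more in the direction of fewer cells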
# The deposit covers about 21,000 reagents; below is a random part of those with a known target gene and a result. In the full data, 429 (2%) got an active call. 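Values are raw and not normalised between plates; calls rest on per-plate z-scores that were not deposited.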 Unmarked entries are inactive. Reagents against one gene are numbered here. A plus sign joins genes that one reagent is predicted to hit. Reagent sequences are not shown. Not stated in the record: the amount of reagent, the time to read-out.
target,dsRNA no.,"Kc cell number, rep 1","Kc cell number, rep 2","S2R+ cell number, rep 1","S2R+ cell number, rep 2"
CG15208 (GeneID 32022),1,5.84e5,,8.41e5,
CG13738 (GeneID 39541),1,1.75e6,1.60e6,1.02e6,1.12e6
CG31709 (GeneID 261620),1,1.49e6,1.49e6,9.97e5,1.11e6
comr (GeneID 37492),1,1.47e6,1.62e6,1.32e6,4.43e5
PpD5 (GeneID 44148),1,1.71e6,1.86e6,1.45e6,4.76e5
Listericin (GeneID 36183),1,1.73e6,1.77e6,1.11e6,1.31e6
cold (GeneID 33237),1,1.34e6,1.44e6,1.06e6,1.18e6
CR42545 (GeneID 8674105),1,1.51e6,1.54e6,1.20e6,3.07e5
Cyp6a20 (GeneID 36664),1,1.46e6,1.55e6,1.13e6,1.19e6
hll (GeneID 34822),1,1.09e6,1.16e6,1.02e6,1.07e6
S6k (GeneID 38654),1,1.43e6,1.32e6,1.26e6,1.28e6
kek5 (GeneID 32930),1,1.47e6,1.52e6,1.07e6,1.12e6
CG15236 (GeneID 35595),1,1.59e6,1.69e6,1.29e6,1.41e6
CG12321 (GeneID 42174),1,1.56e6,1.72e6,1.26e6,1.35e6
sotv + CG10731,1,1.53e6,1.58e6,1.16e6,1.17e6
sotv + CG10731,2,1.49e6,1.53e6,1.16e6,1.20e6
atk (GeneID 40266),1,1.36e6,1.32e6,9.93e5,1.17e6
atk (GeneID 40266),2,1.44e6,1.75e6,1.24e6,1.35e6
Rab23 (GeneID 40701),1,1.52e6,1.72e6,1.29e6,1.34e6
GC (GeneID 38194),1,1.35e6,1.32e6,1.08e6,1.26e6
CG6425 (GeneID 43216),1,5.31e5,,7.73e5,
Ufd1 (GeneID 39254),1,1.33e6,1.41e6,1.35e6,1.15e6
CG11816 (GeneID 32310),1,1.51e6,1.43e6,1.03e6,1.17e6
Sfp38D (GeneID 8673971),1,5.65e5,,8.79e5,
Cyp4d8 (GeneID 38841),1,1.31e6,1.39e6,1.06e6,1.05e6
CR33319 (GeneID 3772025),1,5.97e5,,9.54e5,
Prp16 (GeneID 32373),1,5.74e5,,8.68e5,
Prp16 (GeneID 32373),2,1.55e6,1.51e6,1.04e6,1.08e6
Nadk1a (GeneID 36506),1,1.48e6,1.45e6,9.83e5,1.11e6
Nadk1a (GeneID 36506),2,1.42e6,1.47e6,1.15e6,1.20e6
Prip (GeneID 36237),1,1.37e6,1.47e6,1.09e6,1.10e6
CG3223 (GeneID 40947),1,1.51e6,1.73e6,1.29e6,1.32e6
DIP1 (GeneID 43981),1,1.60e6,1.63e6,1.18e6,1.27e6
CG16762 (GeneID 38310),1,1.48e6,1.37e6,1.09e6,1.38e6
CG4281 (GeneID 31171),1,4.97e5,,7.55e5,
wwk (GeneID 34886),1,1.72e6,1.93e6,1.24e6,1.35e6
Lim3 (GeneID 35184),1,1.73e6,1.78e6,1.26e6,3.05e5
Lim3 (GeneID 35184),2,1.30e6,1.46e6,8.85e5,2.90e5
CG43740 (GeneID 31962),1,1.68e6,1.59e6,1.01e6,1.16e6
CG13398 (GeneID 34169),1,1.60e6,1.62e6,1.25e6,1.49e6
CG4022 (GeneID 39082),1,1.47e6,1.53e6,1.15e6,1.30e6
Spn42De (GeneID 35602),1,1.64e6,1.72e6,1.22e6,1.39e6
Epac (GeneID 35588),1,1.43e6,1.55e6,1.01e6,1.05e6
Epac (GeneID 35588),2,1.48e6,1.64e6,1.34e6,1.56e6
Ltn1 (GeneID 40127),1,1.44e6,1.55e6,1.03e6,1.08e6
Ltn1 (GeneID 40127),2,1.32e6,1.41e6,1.22e6,1.28e6
CG14232 (GeneID 32983),1,1.57e6,1.68e6,1.04e6,1.13e6
CG12865 (retired record) (GeneID 36633),1,1.64e6,1.67e6,1.36e6,1.46e6
Dnz1 (GeneID 34503),1,1.31e6,1.40e6,1.12e6,1.14e6
CG10874 (GeneID 33394),1,1.65e6,1.66e6,1.09e6,1.18e6
CG12895 (GeneID 36103),1,1.52e6,1.56e6,1.24e6,1.27e6
CG11076 (GeneID 43830),1,1.48e6,1.51e6,1.11e6,1.21e6
Tsp42En (GeneID 35624),1,1.53e6,1.59e6,1.28e6,1.54e6
key (GeneID 37967),1,1.29e6,1.38e6,9.41e5,9.76e5
lncRNA:CR42862 + CG33229,1,1.53e6,1.67e6,1.15e6,1.22e6
CG12069 (GeneID 43643),1,1.49e6,1.53e6,9.95e5,1.08e6
Nplp4 (GeneID 50190),1,1.67e6,1.74e6,1.09e6,1.20e6
CG2127 (GeneID 35811),1,1.48e6,1.59e6,1.31e6,1.46e6
Nuf2 (GeneID 33992),1,1.24e6,1.29e6,5.51e5,5.79e5
